Experimental data taken from patent CN116063506A.
Results are given in words; binding and its absence hold for the method and conditions named. Some results given as binding are weak or reduced against the parent protein; the word gives no strength.

Molecular target: CD4抗原 (表面抗原分化簇4, Cluster of Differentiation 4) (UniProt P01730)
Assay: flow cytometry on mixed K562-CD4 and K562 cells, 1 μg antibody

binding: binds
B1: 分离的抗体(标记为CD4-14) (antibody, V domains shown)
VH: QVQLVQSGPELKKPGASVKVSCKASGYTFTDYVIHWVKQATGQGLEWIGEIYPGSGSAYSNAKFKDRVTMTADKSSNTAYMELSSLTSDDTAVYFCARRGNGTGFAYWGQGTLVTVSS
VL: DIVLTQSPASLAVSLGQRATITCKAGQSVDYDGDSYMNWYQQKPGQPPKLLIYVASNLESGIPARFSGSGSGTDFTLNIHPVEENDAATYYCQQSYKDPLTFGQGTKLEIK
